Source: PubChem BioAssay AID493014 (National Center for Advancing Translational Sciences (NCATS), 2011)
Hit rate of the full screen: of about 340,000 compounds, about 170 (0.05%) were called active. This list was built around the results that the source calls inconclusive (neither active nor inactive); the mix of calls is not that of the screen. Calls come from the whole dose curve; as a rule, active = well fitted inhibition curve with a large enough effect in the signal ratio, with a control signal flat (not every such curve was filed as active); inconclusive = small, poorly fitted or top-dose-only effect, or effect the other way, or a change in a side signal; inactive = flat fitted curve, though single readings scatter; the % refers to the signal ratio. Where the call is inconclusive, the potency comes from a doubtful curve fit.

assay: qHTS Assay to Find Inhibitors of Chronic Active B-Cell Receptor Signaling; conditions: ABC-DLBCL IkBa-CBG/CBR reporter, luminescence ratio (green luciferase fused to IkBa over red control in TMD8 lymphoma cells), 4 h; activity change, negative = inhibition: at 46.1 µM (top of the series) unless noted;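 for activity change, negative = inhibition: plate controls were basal doxycycline-induced cells for no effect and cells given 10 µM MG132 for full effect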
How it was run: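 TMD8 human ABC-DLBCL cells with doxycycline-inducible IκBα–green luciferase fusion and unfused red luciferase, in 0.5% FBS medium; compounds up to 46 uM, 4 h at 37C. Green/red luminescence ratio, filter-overlap corrected, fitted to concentration-response curves.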
Potency is the fitted concentration of half-maximal effect.

Compound | Potency | activity change, negative = inhibition
CC(=O)Nc1ccc(NC(=O)c2ccccc2F)cc1 | inconclusive: 18.4 µM [falling, partial curve] | –
Cc1onc(-c2c(F)cccc2Cl)c1C(=O)OCc1cnc(Cl)s1 | – | inconclusive: 7.93%
Cc1ccc(C(C(=O)NC2CCCCC2)N(Cc2ccco2)C(=O)Cc2c[nH]c3ccccc23)o1 (configuration not stated) | inconclusive: 29.1 µM [falling, single point] | –
O=C1C=C(Nc2cccc3cccnc23)c2ccccc2C1=O | inconclusive: 1.26 µM [falling, full curve] | –
O=C(Cc1cccs1)N1CCN=C1SCc1ccc(Br)cc1 | – | inactive
COCCCn1c(C(=O)NC2CCCCC2C)cc2c(=O)n3cccc(C)c3nc21 (configuration not stated) | – | inactive
C/C(=N\NC(=O)c1nonc1N)c1cccs1 | – | inconclusive: -20.7%
COc1ccc2nc3c(cc2c1)c(NC(=O)CC(C)C)nn3CC(C)C | – | inconclusive: 12.9%
Cc1[nH]n(-c2cccc(Cl)c2)c(=O)c1-c1ccc(Cl)cc1 | – | inconclusive: -12.8%
COc1cccc(CNc2ncc(-c3ccccc3)n2C)c1 | inconclusive: 17.8 µM [falling, single point] | –
Cc1ccc(NC(=O)c2cc3ccccc3o2)nc1 | inconclusive: 5.17 µM [falling, single point] | –
Cc1cccc(N2CCN(C(=O)C3CCN(S(=O)(=O)c4c(C)noc4C)CC3)CC2C)c1 (configuration not stated) | – | inconclusive: -10.7%
c1cncc(-c2nc(-c3ccc4c(c3)OCCO4)cs2)c1 | – | inconclusive: -17.5%
CN(Cc1ccccc1)C(=O)c1nc[nH]c1C(=O)N1CCc2ccccc2C1 | – | inconclusive: -17.7%
Cc1ccc(C)c2nc3sc(C(=O)O)cc3cc12 | – | inconclusive: 11.5%
CCN(CC(=O)NCc1ccc(Cl)cc1)C(=O)CN1C(=O)NC(C)(c2ccccc2)C1=O (configuration not stated) | – | inconclusive: 3.62%
OC[C@H]1O[C@@H](O[C@@H]2[C@@H](CO)O[C@@](O)(CO)[C@H]2O)[C@H](O)[C@@H](O)[C@H]1O | – | inactive
CCOc1ccc(OCCOC(=O)CNC(=O)c2ccc(Cl)cc2Cl)cc1 | – | inconclusive: -0.434%
Cc1ccc(C(=O)N(Cc2ccccc2)C(C)(C)C)cc1C | – | inactive
COc1cccc(Nc2nnc(SCc3nc4ccccc4s3)s2)c1 | – | inactive
O=C(Cc1ccc(Cl)cc1)NNc1c(F)c(F)cc(F)c1F | inconclusive: 0.13 µM [falling, full curve, poor fit] | –
CC(=O)Nc1cccc(-c2csc(Nc3ccc(Cl)cn3)n2)c1 | inconclusive: 17.8 µM [falling, partial curve] | –

Entries listed so far that have an aryl methoxy group, in the order listed:
Compound | Potency | activity change, negative = inhibition
COc1ccc2nc3c(cc2c1)c(NC(=O)CC(C)C)nn3CC(C)C | – | inconclusive: 12.9%
COc1cccc(CNc2ncc(-c3ccccc3)n2C)c1 | inconclusive: 17.8 µM [falling, single point] | –
COc1cccc(Nc2nnc(SCc3nc4ccccc4s3)s2)c1 | – | inactive
